Measurements: PubChem BioAssay AID1347426 (Functional Genomics Laboratory (NCATS/FGL), 2020)
Out of some 31,000 sequences screened, about 1,400 (4.5%) were called active.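 How the source made its calls: active means median seed-adjusted z-score above 1 or below -1; inactive means the rest.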 Some of the results follow.

Test: Novel Modifiers of Survival Motor Neuron (SMN) Protein: Gene Identification via Genome-wide siRNA Screen;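 further: luminescence tracks full-length SMN protein made from the SMN2 reporter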
Settings: HEK293T SMN2-luciferase reporter, siRNA knockdown, 72 h; actives lie on both sides
In short: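 HEK293T cells stably carrying an SMN2 promoter/splicing cassette–luciferase reporter were reverse-transfected with 1 pmol siRNA per well (druggable-genome library, 3 siRNAs per gene) and grown 72 h at 37 °C. Luminescence, normalized to negative-control siRNA and log10-transformed, was scored as MAD.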

Sequence | median seed-adjusted z-score
CAAGUGGAGUAACACCAAATT against VIL1 | inactive: 0.368
CAACUUCGGCUUUGAAGAATT against ATP4B | inactive: -0.609
CUUCAAUCCUGGUCCAACUTT against NAT6 | inactive: -0.327
CCAACUCAUUGAUAGGGAUTT against PRPH2 | inactive: 0.0931
AAGAGAAAGUUCACGAGUATT against LRPAP1 | inactive: -0.0616
CAUGCAGAUUUGUAUGUUATT against AGPAT4 | inactive: 0.149
GGAAUAUUCUGCUAUAGGATT against PVRL3 | inactive: -0.0385
GCAACGUCGACUACAAAAATT against MYLPF | inactive: 0.348
ACCUGGUUCUUGCAAAAGATT against CBX5 | inactive: 0.404
UGACAUGCAUGACUUCUUUTT against TAC3 | inactive: -0.00265
AGAUGUUCUUAAGACCAAATT against PACSIN2 | inactive: 0.73
CCUGGAUUCUCAUGCUCUATT against HHAT | inactive: 0.585
CGGUCGAACCAAACCCAUUTT against SRP14 | inactive: 0.0824
AGCUGACCUUCUGUAGGAATT against NUBP2 | inactive: -0.21
GAAUGAUAGUCAUACUCCUTT against USP16 | inactive: -0.173
ACGCCUACCUGUUUUCCCATT against CEL | inactive: 0
UGACGCUUAUGAACCUCUATT against GPR137 | inactive: 0.564
AGAGGUACCAGAGACUCUATT against AMZ1 | inactive: 0.205
GCUCUAACCUUGUUGUUCATT against ZNF660 | inactive: 0.251
GCAGCCGCAUAAGAAGUCATT against ATP6V1C2 | inactive: 0.2
GGAUUUUCUACGUACGGUATT against TARS | inactive: 0.146
GGACUCUCGCUGUCCACAATT against OSR1 | inactive: -0.185
CCAUCACCCGUGAAGAGAATT against CRYAB | inactive: 0.354

Sequence | median seed-adjusted z-score
CCUUGGAUUUUUAUCAUUUTT against PTGDR | inactive: -0.158
CGCUAUGGAUUCCAACUAUTT against MYOT | inactive: 0.091
CAACCUAUGUGGCAGCCAUTT against ABHD11 | inactive: -0.189
GUGCUUACCUUAUUGAACATT against ZFP2 | inactive: 0
GGACAUUGCUGAUCGCUUUTT against DMC1 | inactive: -0.00876
CAUUCAUAGUAGAAAGAGATT against ACAD9 | inactive: -0.384
GAAUCAAGAAUUAAAGACATT against PIPOX | active: 1.06
GACAAGUGAUAGUGAAUGATT against ZNF35 | inactive: -0.332
ACCUGAUUCUGCAAAGAUATT against LILRB4 | inactive: -0.104
UCACCUUUGUCAUCUAUGATT against NECAB2 | inactive: -0.286
GCCAGAAUGCAUGACUUCATT against BRF1 | inactive: -0.261
GGACUACUUUGGUGAGUGUTT against AP3M1 | inactive: 0
CGAAGGUGCUUGCAUUGGATT against MEGF8 | inactive: 0.0906
GGGACUAACAUGUACAACATT against PCDH24 | inactive: 0.345
GGAGUUUCCAGAGAUCACATT against UPRT | inactive: -0.441
UCACCUCAUUUCUAAGAAATT against OVOL1 | inactive: -0.0414
GCUCUUUGCCGUUUCUAAUTT against SLC29A2 | inactive: -0.0569
UACUGUCUCUAGUCUUUUUTT against SEC11B | active: 1.04
GUCCUUGACAUGAAGCGUATT against GSTM5 | inactive: -0.861
GGAUUUGAGCAAUGCUGUATT against RAD9B | inactive: 0.0879
GAACCAUCGUUUUACAAGATT against ACVR1B | inactive: 0.201
GCCUCGAUUCUCUACACUATT against PTPRT | inactive: -0.323
CAAUGUUCCUUUGCUAGUUTT against CTNNA2 | inactive: -0.0686

4 neighbouring entries already listed, for reference:
Sequence | median seed-adjusted z-score
CGCUAUGGAUUCCAACUAUTT against MYOT | inactive: 0.091
CAACCUAUGUGGCAGCCAUTT against ABHD11 | inactive: -0.189
GUGCUUACCUUAUUGAACATT against ZFP2 | inactive: 0
GGACAUUGCUGAUCGCUUUTT against DMC1 | inactive: -0.00876

The list goes on.

Sequence | median seed-adjusted z-score
GCAGUAUAUUACAAACAAATT against NAT2 | inactive: -0.0495
CUACCUCUCUUGUUUGGAATT against TRIP13 | active: 1
GGUGGAUAAGGAUUUGGAUTT against SOX11 | inactive: 0.02
CGAGUUUGACAUCAAUGAATT against ECSIT | inactive: -0.116
GAUGUAUCCAGUUAAAGCATT against NPHP1 | inactive: -0.0667
GGACAAGAAUUUUGCCUUUTT against U2AF2 | active: 2.14
UGAUCGAGGUGAACAAUGUTT against AVPR1A | inactive: 0
GGCCCAAGCUUCAACAGCATT against DNASE2 | active: -1.23
GGAAGAAAGCCGUAAUGAATT against GK2 | inactive: 0
AAUCAGAUUCUCAACCUAATT against KRT10 | inactive: 0.493
GAACCUAUCUGAUCGGCAATT against RFX3 | inactive: 0.17
GGGCUUUACAUGUAGGUAUTT against ZNF607 | inactive: 0.857
GGAACAAAGUCGCCGUCAATT against CSK | inactive: 0.993
CAGUGAGGCUGUUCUCGAATT against LIMCH1 | inactive: 0.125
CCACGAGACGGGAACAUUATT against MDM4 | inactive: 0.0554
GCAACACGUUUUUCCGCAATT against SV2A | inactive: 0.138
CAAUCAUCUUCGUCACCAATT against CCL16 | inactive: -0.308
GGAUGAUAUGGGACCAUAATT against PTPRZ1 | active: 1.73
GGCUGUUGGUGCUAUAGCATT against CLCN5 | inactive: 0.856
GGUUCAUGACAGACAAGAATT against SHMT1 | inactive: 0.179
GCAAAUAUAAGGUCCCUGATT against GSTT1 | inactive: 0.0781
GAACCCAGGAUUAAUAAAATT against EHF | inactive: 0.581
GCAACUUAAUCUUAUCCUUTT against TTC13 | inactive: 0.0363
